From paper PMC5836524
Results are given in words; binding and its absence hold for the method and conditions named. Binding seen in cells or lysates may run through a third protein. Some entries that bind do so weakly or less than the wild type. Sequences can lack the tags named with a protein.

By UniProt entry, the sequences of proteins in these tests, tags left out.
UniProt Q00610: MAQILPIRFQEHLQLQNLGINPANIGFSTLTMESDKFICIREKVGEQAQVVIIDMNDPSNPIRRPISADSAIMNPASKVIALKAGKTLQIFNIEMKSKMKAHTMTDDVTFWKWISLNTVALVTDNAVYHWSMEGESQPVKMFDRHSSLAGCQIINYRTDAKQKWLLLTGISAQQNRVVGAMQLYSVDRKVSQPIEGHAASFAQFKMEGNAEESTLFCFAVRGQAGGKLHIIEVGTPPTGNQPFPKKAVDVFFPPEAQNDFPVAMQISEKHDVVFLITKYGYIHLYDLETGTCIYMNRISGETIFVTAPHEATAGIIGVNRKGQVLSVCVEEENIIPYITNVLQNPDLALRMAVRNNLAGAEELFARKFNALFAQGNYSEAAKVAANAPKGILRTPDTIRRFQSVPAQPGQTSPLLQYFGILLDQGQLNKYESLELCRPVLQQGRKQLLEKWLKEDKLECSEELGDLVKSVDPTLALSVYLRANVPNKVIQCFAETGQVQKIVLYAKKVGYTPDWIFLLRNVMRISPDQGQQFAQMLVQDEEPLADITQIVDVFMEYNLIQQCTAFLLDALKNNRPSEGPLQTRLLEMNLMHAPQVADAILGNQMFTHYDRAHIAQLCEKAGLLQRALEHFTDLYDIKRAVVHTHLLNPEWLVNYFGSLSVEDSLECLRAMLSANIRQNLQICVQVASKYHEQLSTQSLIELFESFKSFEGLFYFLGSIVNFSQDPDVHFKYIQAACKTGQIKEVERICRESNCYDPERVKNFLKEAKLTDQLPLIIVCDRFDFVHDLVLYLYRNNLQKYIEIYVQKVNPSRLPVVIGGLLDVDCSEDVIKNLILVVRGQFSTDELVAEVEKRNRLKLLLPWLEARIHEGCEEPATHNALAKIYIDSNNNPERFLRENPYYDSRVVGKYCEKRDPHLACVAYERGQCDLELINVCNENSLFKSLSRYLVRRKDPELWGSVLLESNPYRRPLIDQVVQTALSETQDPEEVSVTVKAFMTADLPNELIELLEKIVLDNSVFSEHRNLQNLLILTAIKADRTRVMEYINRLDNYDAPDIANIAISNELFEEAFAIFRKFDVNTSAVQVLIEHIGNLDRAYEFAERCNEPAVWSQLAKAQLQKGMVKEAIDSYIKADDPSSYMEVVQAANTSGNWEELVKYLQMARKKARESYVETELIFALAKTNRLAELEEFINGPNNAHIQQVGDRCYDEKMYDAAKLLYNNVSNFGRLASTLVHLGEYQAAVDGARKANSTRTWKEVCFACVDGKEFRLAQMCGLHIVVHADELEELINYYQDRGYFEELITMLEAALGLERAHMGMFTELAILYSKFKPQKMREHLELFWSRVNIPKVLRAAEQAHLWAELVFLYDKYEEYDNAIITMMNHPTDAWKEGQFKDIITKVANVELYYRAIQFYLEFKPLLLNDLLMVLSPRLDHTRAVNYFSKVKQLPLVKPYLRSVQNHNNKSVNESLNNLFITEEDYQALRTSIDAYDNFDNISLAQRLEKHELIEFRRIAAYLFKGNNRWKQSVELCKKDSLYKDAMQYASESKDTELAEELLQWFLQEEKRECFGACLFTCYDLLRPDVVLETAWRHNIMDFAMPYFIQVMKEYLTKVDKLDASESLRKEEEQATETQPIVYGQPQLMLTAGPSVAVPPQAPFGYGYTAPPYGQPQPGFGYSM

Tests used:
Test in all cases: co-IP; EGFP-tagged Eps15R, its truncations or mutant, EGFP-Eps15 or EGFP immunoprecipitated from HeLa cell extract (20 mM HEPES pH 7.4, 100 mM NaCl, 0.5 mM TCEP, 0.1% NP-40; 4°C); immunoblot for clathrin, AP2 β-adaptin and EGFP
[1] = biological target: T1, EGFP-Eps15R aa 1-596 (Δ motif domain) (mouse) (UniProt Q60902)
T1 sequence: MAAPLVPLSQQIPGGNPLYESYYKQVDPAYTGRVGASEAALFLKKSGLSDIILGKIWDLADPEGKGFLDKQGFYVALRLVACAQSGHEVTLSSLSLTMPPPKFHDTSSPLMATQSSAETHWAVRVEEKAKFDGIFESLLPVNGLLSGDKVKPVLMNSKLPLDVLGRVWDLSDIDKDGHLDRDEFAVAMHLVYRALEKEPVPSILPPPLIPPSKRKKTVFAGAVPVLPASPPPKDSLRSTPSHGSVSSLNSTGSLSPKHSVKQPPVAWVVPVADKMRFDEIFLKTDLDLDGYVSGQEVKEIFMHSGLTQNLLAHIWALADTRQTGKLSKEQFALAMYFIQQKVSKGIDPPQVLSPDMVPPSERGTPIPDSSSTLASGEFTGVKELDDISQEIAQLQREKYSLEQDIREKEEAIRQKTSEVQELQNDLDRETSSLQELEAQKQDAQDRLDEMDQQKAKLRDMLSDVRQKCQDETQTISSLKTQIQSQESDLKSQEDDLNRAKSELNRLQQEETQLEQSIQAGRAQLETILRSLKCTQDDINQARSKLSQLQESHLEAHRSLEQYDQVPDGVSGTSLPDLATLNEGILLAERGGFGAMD

[2] = biological target: T2, EGFP-Eps15R aa 1-747 (Δ proline-rich region) (mouse) (UniProt Q60902)
T2 sequence: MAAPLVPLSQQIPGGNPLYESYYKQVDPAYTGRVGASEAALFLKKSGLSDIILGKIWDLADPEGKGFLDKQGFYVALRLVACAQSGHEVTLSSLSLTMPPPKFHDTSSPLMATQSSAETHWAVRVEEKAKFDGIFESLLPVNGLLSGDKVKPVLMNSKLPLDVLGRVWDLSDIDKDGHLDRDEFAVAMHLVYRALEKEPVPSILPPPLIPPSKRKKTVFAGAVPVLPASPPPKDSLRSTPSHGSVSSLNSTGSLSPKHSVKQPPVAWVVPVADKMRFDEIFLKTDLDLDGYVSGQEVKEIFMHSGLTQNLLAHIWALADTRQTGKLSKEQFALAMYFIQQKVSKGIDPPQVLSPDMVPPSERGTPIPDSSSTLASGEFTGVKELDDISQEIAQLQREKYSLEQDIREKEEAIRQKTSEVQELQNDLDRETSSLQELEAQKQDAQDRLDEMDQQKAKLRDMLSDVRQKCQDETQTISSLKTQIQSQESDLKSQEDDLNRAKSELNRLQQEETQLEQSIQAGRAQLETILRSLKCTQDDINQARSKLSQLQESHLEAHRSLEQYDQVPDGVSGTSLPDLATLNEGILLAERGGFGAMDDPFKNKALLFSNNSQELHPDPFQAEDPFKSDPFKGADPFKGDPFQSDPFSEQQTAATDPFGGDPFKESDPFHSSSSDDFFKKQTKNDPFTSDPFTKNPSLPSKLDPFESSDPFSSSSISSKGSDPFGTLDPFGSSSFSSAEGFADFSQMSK

[3] = biological target: T3, EGFP-Eps15R aa 1-861 (ΔUIM) (mouse) (UniProt Q60902)
T3 sequence: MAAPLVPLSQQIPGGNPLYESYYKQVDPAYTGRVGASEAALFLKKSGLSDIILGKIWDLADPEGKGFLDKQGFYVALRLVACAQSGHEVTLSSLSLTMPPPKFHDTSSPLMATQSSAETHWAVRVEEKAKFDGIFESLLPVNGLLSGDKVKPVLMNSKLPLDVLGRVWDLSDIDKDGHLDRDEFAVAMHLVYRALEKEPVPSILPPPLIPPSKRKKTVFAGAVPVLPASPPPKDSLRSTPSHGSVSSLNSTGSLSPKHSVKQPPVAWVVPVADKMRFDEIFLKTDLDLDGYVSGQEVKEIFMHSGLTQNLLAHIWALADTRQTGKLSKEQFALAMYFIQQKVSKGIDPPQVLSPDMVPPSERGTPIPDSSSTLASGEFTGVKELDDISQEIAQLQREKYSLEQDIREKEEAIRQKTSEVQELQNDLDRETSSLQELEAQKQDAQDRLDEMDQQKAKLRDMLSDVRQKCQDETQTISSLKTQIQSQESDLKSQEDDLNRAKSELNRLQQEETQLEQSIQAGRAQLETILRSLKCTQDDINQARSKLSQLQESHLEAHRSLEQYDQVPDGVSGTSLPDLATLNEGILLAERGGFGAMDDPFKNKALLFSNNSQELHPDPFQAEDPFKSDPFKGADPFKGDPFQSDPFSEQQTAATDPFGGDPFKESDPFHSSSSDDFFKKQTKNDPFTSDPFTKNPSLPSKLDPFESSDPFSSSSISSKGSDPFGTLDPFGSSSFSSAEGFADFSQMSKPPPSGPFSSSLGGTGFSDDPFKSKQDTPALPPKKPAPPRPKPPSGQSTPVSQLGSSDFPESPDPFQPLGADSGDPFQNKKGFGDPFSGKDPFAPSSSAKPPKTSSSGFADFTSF

binding [1]: no binding
binding [2]: binds
binding [3]: binds
Substance: clathrin (endogenous, detected by blot for clathrin heavy chain) (from UniProt Q00610 1-1675)
